Data from the supplement of paper PMC10338343.
± gives the standard deviation. Only a part is listed here, and it is no random draw. Many entries were measured with a wide error.

What follows are sequences tested on MIWI (PIWIL1) piRISC loaded with L1MC piRNA (30 nt) (assay: pre-steady-state target cleavage rate (min^-1); MIWI and MILI are mouse PIWI proteins and EfPiwi is from a freshwater sponge; tags in brackets are library labels; higher = faster piRNA-guided slicing of the target). Conditions: guide: L1MC piRNA 5'p-UAACUAAAUACUAUGCAAGCUGUAGGUCCU; auxiliary factor: none (no GTSF1).
In short: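 Cleave-'n-Seq used a transcribed, DNA-blocked target RNA library at 0.1 nM and active affinity-purified piRISC with one synthetic guide at 1 nM, with or without 500 nM GTSF1 partner protein, in HEPES–potassium acetate buffer at 33 °C for 0–8 or 0–960 min. Uncleaved targets were sequenced and normalised to depth and to weakly complementary targets, and three trials were pooled with k3 capped at 0.0001 min^-1. The pre-steady-state cleavage rate was estimated by a burst-and-steady-state fit.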
In the case of AGGACCUACAGCUUGCAUCAGUAUUUAGUUA, the “pre-steady-state target cleavage rate” value is reported as 0.000872 ± 0.01.
For UCCACCUACAGCUUGCAUACAUUUUAGUAA, the “pre-steady-state target cleavage rate” value was 0.000209 ± 0.013.
In the case of UCGACCUACAGCUUGCAUUAGUAUUUAGUUA, the “pre-steady-state target cleavage rate” value is reported as 0.00105 ± 0.0073.
UCCUGGAUGUCGAUGCAUAGUAUUUGGUUA was tested, and the “pre-steady-state target cleavage rate” value was 0.00125 ± 0.0073.
For UCCUGGAUGUCGAACGUAAGUAUUUGUUA, the “pre-steady-state target cleavage rate” value was 0.000245 ± 0.02.
UCGACCUACAGCUUCCAUAGUUUUUAGUUA was tested, and the “pre-steady-state target cleavage rate” value was 0.00125 ± 0.004.
With UGGACCUACAGCUUGCAUUCUAUUUACAAA the “pre-steady-state target cleavage rate” value was 0.000715 ± 0.0066.
UCGACCUACAGCUUGCAUAGUAAAAUCAAA was tested, and the “pre-steady-state target cleavage rate” value was 0.000289 ± 0.01.
With UCCUCCUACAGCUUGCAUUCAAUUUAGUUA the “pre-steady-state target cleavage rate” value was 0.00141 ± 0.0051.
UCCUGGUACAGCUUGCAUAGUAUUUUCAAA was tested, and the “pre-steady-state target cleavage rate” value was 0.00187 ± 0.0039.
In the case of UGGACCUACAGCUUGCAUAGAUAUUAGAAA, the “pre-steady-state target cleavage rate” value is reported as 0.000696 ± 0.0091.
For UCCUGGAUGUCGAACGUAAUGUAUUUAGUUA, the “pre-steady-state target cleavage rate” value was 0.000156 ± 0.026.
In the case of AGGACCUACAGCUUGGUUAGUAUUUUCAAA, the “pre-steady-state target cleavage rate” value is reported as 0.000535 ± 0.0098.
In the case of UCCUGGAUGUGCUUGCAUAGUUUAUAGUUA, the “pre-steady-state target cleavage rate” value is reported as 0.00289 ± 0.0033.
With AGGACCUACAGCUUCGAUAGUAUUUAGUUA the “pre-steady-state target cleavage rate” value was 0.00213 ± 0.0025.
For “UCCUGCUACAGCUUGCAUAGUAUUAUCAAA [g7:g25:cont:t1A]”, the “pre-steady-state target cleavage rate” value was 0.00146 ± 0.0037.
For “UCCUGGAUCAGCUUGCAUAGUAUAAUCAAA [g8:g22:cont:t1A]”, the “pre-steady-state target cleavage rate” value was 0.000629 ± 0.0062.
In the case of UCGACCUACAGCUUGCAUUGUAUUUACAAA, the “pre-steady-state target cleavage rate” value is reported as 0.00192 ± 0.0036.
UCCUGGAUGUCGUUCCAAAGUAUUUAGUUA was tested, and the “pre-steady-state target cleavage rate” value was 0.000383 ± 0.012.
In the case of UCCUGCUACAGCUUGCAUAGUAUAUAGAAA, the “pre-steady-state target cleavage rate” value is reported as 0.00119 ± 0.0042.
In the case of UCCUGGAUGUCGAACGUAAGUAUUAGUUA, the “pre-steady-state target cleavage rate” value is reported as 0.000175 ± 0.036.
UCCACCUACAGCAAGCAUAGUAUUUAGUAA was tested, and the “pre-steady-state target cleavage rate” value was 0.00206 ± 0.0026.
UCCUCCUACAGCUUGCCAUAGUAUUUAGUUA was tested, and the “pre-steady-state target cleavage rate” value was 0.00159 ± 0.0039.
For “UCCACCUACAGCUUGCUAUCAUAAAUCAAA [g15:g27:cont:t1A]”, the “pre-steady-state target cleavage rate” value was 0.000576 ± 0.013.
AGGACCUACAGCUUGCAUUCAAUUUACAAA was tested, and the “pre-steady-state target cleavage rate” value was 0.000625 ± 0.012.
UGGACCUACAGCUUCGUUAGUAUUUAGUUA was tested, and the “pre-steady-state target cleavage rate” value was 0.00139 ± 0.0023.
UCGACCUACAGCUUGCAAUGUAUUUAGAAA was tested, and the “pre-steady-state target cleavage rate” value was 0.000447 ± 0.0045.
In the case of UCCACCUACAGCUUGCAUAGAUAUUUCAAA, the “pre-steady-state target cleavage rate” value is reported as 0.000238 ± 0.012.
With AGGACCUACAGCUUGCUAAGUAUUUUCAAA the “pre-steady-state target cleavage rate” value was 0.000258 ± 0.018.
In the case of UCCACCUACAGCUUGCAUACAUUUUACAAA, the “pre-steady-state target cleavage rate” value is reported as 0.000329 ± 0.015.
UGGACCUACAGCUUGCAUAGUAUAAAGAAA was tested, and the “pre-steady-state target cleavage rate” value was 0.00191 ± 0.0034.
UCCACCUACAGCAACCAUAGUAUUUUCAAA was tested, and the “pre-steady-state target cleavage rate” value was 0.00016 ± 0.021.
With AGGACCUACAGCUUGCAUACAUUUUUCAAA the “pre-steady-state target cleavage rate” value was 0.000535 ± 0.015.
In the case of UGGACCUACAGCUUGCAUUAGUAUUUAGUUA, the “pre-steady-state target cleavage rate” value is reported as 0.000469 ± 0.0074.
UCCACCUACACGAUGCAUAGUAUUUUCAAA was tested, and the “pre-steady-state target cleavage rate” value was 0.000608 ± 0.012.
In the case of AGGACCUACAGCUUCCAUAGUAUUUACUUA, the “pre-steady-state target cleavage rate” value is reported as 0.00112 ± 0.0053.
In the case of AGGACCUACAGCUUGCAAUCUAUUUAGUAA, the “pre-steady-state target cleavage rate” value is reported as 0.00122 ± 0.0065.
For UGCUCCUACAGCUUGCAUAGUAUUUUCAAA, the “pre-steady-state target cleavage rate” value was 0.00263 ± 0.003.
In the case of UCGACCUACAGCUUGGUAAGUAUUUUCAAA, the “pre-steady-state target cleavage rate” value is reported as 0.000566 ± 0.0099.
